Percent effect of library compounds

Chains of the proteins cited; added tags and fusions are not shown. Residues count along the entry.
UniProt P9WFT3, whole entry: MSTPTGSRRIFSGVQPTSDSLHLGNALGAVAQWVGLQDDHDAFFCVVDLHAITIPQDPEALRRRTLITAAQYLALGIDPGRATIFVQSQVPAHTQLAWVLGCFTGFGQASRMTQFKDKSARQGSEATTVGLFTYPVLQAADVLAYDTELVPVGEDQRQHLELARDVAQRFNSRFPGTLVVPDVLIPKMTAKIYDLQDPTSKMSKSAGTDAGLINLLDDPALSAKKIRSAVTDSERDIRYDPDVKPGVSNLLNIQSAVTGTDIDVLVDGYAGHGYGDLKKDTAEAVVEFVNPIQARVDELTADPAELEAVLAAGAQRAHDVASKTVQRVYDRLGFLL
UniProt I6X8D2, whole entry: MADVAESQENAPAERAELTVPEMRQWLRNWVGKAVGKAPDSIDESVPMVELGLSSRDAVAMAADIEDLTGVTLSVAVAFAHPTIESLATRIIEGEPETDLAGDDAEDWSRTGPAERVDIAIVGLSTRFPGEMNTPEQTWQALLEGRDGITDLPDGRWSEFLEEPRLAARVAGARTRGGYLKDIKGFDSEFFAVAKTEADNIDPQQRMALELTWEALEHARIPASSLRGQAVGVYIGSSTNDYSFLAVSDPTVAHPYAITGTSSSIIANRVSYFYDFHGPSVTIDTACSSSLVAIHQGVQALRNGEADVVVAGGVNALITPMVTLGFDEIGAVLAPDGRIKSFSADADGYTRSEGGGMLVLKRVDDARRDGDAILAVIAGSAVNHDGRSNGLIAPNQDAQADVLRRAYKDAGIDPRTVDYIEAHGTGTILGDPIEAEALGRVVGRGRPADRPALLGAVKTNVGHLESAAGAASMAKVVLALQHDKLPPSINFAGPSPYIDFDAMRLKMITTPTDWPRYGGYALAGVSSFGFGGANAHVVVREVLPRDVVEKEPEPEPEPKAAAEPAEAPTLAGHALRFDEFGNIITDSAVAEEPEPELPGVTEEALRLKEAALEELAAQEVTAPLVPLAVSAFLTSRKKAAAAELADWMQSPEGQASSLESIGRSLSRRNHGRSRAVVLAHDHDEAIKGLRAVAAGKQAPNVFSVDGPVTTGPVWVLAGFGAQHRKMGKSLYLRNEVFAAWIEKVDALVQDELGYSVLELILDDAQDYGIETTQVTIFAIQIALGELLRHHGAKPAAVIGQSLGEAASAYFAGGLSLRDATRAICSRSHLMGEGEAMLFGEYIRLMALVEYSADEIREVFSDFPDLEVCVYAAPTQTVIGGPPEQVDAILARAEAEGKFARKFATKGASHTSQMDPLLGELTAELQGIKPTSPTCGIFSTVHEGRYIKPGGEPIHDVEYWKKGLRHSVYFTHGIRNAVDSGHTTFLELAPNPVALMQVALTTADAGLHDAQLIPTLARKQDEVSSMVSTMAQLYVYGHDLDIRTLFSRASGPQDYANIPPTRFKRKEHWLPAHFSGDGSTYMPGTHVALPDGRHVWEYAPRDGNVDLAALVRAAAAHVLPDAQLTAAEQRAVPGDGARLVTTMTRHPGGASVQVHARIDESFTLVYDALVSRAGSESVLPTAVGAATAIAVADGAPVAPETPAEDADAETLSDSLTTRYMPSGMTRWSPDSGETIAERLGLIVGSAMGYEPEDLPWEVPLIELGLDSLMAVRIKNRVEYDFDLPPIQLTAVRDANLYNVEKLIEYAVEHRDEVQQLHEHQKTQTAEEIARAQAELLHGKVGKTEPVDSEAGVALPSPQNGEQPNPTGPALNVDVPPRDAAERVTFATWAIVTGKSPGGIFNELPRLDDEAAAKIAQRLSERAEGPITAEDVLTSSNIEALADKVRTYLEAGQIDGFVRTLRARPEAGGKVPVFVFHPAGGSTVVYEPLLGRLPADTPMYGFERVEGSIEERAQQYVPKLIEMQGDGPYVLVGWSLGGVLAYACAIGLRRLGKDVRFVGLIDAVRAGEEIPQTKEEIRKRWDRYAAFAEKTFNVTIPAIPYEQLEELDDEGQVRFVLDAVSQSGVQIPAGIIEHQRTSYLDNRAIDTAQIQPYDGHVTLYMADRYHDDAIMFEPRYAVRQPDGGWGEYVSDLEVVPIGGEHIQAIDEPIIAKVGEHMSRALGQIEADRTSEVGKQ
UniProt A4I591, 1-473: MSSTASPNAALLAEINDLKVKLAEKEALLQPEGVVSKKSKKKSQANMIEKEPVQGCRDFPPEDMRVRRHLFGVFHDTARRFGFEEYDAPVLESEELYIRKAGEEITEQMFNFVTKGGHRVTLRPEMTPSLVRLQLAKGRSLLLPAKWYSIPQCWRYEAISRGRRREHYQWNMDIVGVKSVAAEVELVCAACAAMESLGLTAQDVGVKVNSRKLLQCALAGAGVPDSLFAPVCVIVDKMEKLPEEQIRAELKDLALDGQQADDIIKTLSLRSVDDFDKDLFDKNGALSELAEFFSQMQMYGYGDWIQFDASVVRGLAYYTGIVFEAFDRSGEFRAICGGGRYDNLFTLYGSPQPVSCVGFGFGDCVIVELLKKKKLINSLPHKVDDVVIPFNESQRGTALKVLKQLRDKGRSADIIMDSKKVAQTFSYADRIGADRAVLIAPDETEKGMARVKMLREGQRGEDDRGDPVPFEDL
UniProt Q4DA54, 1-478: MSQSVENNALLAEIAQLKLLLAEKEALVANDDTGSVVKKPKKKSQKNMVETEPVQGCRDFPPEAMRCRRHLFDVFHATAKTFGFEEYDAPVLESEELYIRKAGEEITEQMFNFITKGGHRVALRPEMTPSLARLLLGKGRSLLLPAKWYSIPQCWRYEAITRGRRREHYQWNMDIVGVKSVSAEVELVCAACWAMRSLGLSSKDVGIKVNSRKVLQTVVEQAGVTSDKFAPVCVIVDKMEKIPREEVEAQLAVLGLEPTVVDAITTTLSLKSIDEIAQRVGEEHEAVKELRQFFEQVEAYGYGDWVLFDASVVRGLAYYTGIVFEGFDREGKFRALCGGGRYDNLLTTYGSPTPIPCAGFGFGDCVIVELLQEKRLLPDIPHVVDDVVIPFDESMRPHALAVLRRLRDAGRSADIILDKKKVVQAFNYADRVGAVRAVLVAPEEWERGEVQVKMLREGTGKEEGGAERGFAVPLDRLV

Data taken from ChEMBL document CHEMBL3988442, “University of Dundee, Small-Polar-MMV Screening Library” (2021).

MtTrpRS: 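Tryptophan-tRNA ligase, Mycobacterium tuberculosis (UniProt P9WFT3). Enzyme assay of tryptophanyl-tRNA synthetase; the read-out is not stated. Tested at 10 µM. Direction is not recorded; retested compounds ran higher, which suggests that high means inhibition. Of about 65,000 compounds tested this way, about 64 (0.098%) reached 50% or more in at least one test.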
Pks13 thioesterase: 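Enzyme assay of the thioesterase domain of polyketide synthase 13; the read-out is not stated. Target: Polyketide synthase Pks13, Mycobacterium tuberculosis (UniProt I6X8D2). Compounds at 30 µM. The record gives no direction; the compounds picked for IC50 retests had high values, so higher reads as stronger inhibition. Size under these conditions: about 67,000 compounds, about 300 of them at 50% or above in at least one test.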
LiHisRS: 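Histidine-tRNA ligase, Leishmania infantum (UniProt A4I591). Enzyme assay of histidyl-tRNA synthetase; the read-out is not stated. Compounds at 30 µM. Higher reads as stronger inhibition (inferred: compounds with an IC50 in retests scored well above the rest). The assay is labelled LdHisRS but filed under L. infantum. Size under these conditions: about 69,000 compounds, about 410 of them at 50% or above in at least one test.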
TcHisRS: 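Enzyme assay of histidyl-tRNA synthetase; the read-out is not stated. Target: Histidine-tRNA ligase, Trypanosoma cruzi CL Brener (UniProt Q4DA54). Compounds at 30 µM. Direction is inferred from retests: higher values go with stronger inhibition. Of about 69,000 compounds tested this way, about 31 (0.045%) reached 50% or more in at least one test.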

Values are the deposited “Percent Effect”, in %. The record does not define 0% and 100%; most values in the screen are far below 50% and negative numbers occur (in some assays of this library far below -100). This is an unselected part of the compounds tested.

compound: CCOCC1CN(C(=O)Cc2ccccn2)Cc2cn(C)nc21 (stereo not drawn)
MtTrpRS: 1.918
Pks13 thioesterase: -16.37
LiHisRS: 14.55
TcHisRS: 4.132

compound: Cn1cnc2c1C(COCC1CC1)CN(c1ncccn1)C2 (stereo not drawn)
MtTrpRS: 2.269
Pks13 thioesterase: -15.16
LiHisRS: -2.778
TcHisRS: 7.477

compound: CC(O)c1cn(C2CCN(C(=O)C3(C)CCN(C)CC3)CC2)nn1 (stereo not drawn)
MtTrpRS: -0.8683
Pks13 thioesterase: 8.646
LiHisRS: 2.5
TcHisRS: 6.763

compound: COc1ccc(C(C)NC(=O)NCCCn2cncn2)cc1F (stereo not drawn)
MtTrpRS: -4.814
Pks13 thioesterase: -5.63
LiHisRS: 22.97
TcHisRS: 1.887

compound: O=C(Cc1ccccn1)N1C[C@@H](Oc2cccnc2)[C@H]2OCCC[C@H]21
MtTrpRS: 6.634
Pks13 thioesterase: -51.11
LiHisRS: 24.77
TcHisRS: 3.365

compound: Cc1nc(C)n(CC2CN(Cc3cc(C#N)ccc3F)CCO2)n1 (stereo not drawn)
MtTrpRS: -6.53
Pks13 thioesterase: -8.523
LiHisRS: 9.821
TcHisRS: 4.046

compound: O=C(CCN1CCCCO1)NC1CCCN(CC2CCCCC2)C1 (stereo not drawn)
MtTrpRS: 0.161
Pks13 thioesterase: 6.036
LiHisRS: 4.918
TcHisRS: 4

compound: COCCN1CCC(CNC(=O)C2(C#N)CCCC2)CC1
MtTrpRS: 6.901
Pks13 thioesterase: -1.03
LiHisRS: 7.018
TcHisRS: -2.521

compound: COc1ccc(OC)c(CNC(=O)N2CCC(n3cncn3)CC2)c1
MtTrpRS: 10.74
Pks13 thioesterase: -5.211
LiHisRS: -3.509
TcHisRS: 2.006

compound: CCNC(=O)N1CCN(C(=O)c2cc(Cl)cc3cccnc23)CC1
MtTrpRS: 2.153
Pks13 thioesterase: 0.4632
LiHisRS: 2.128
TcHisRS: 3.053

compound: CCn1ccnc1CNCC1CCN(CC(O)c2ccccc2)CC1 (stereo not drawn)
MtTrpRS: 0.3712
Pks13 thioesterase: -4.095
LiHisRS: 0
TcHisRS: -1.527

compound: Cc1cccc(CSc2ncc(Br)c(C(=O)O)n2)c1
MtTrpRS: -10.31
Pks13 thioesterase: -3.691
LiHisRS: 0
TcHisRS: -1

compound: CCN1CC2(CC1=O)CN(C(C)=O)CCN(C(=O)c1ccco1)C2 (stereo not drawn)
MtTrpRS: -0.2467
Pks13 thioesterase: 7.632
LiHisRS: 5.714
TcHisRS: -2.479

compound: O=C(c1cocn1)N1CCC[C@]2(C[C@@H](Oc3ncccc3F)CO2)C1
MtTrpRS: -2.853
Pks13 thioesterase: -14.8
LiHisRS: 14.52
TcHisRS: 3.509

compound: O[C@@H]1C[C@H]2CN(CC3CCCCC3)[C@H](Cc3ccccc3)CN2C1
MtTrpRS: 11.69
Pks13 thioesterase: -10.64
LiHisRS: 10.74
TcHisRS: 4.286

compound: CN(C)Cc1cnc2n1CCN(C(=O)Cc1cccc(F)c1)CC2
MtTrpRS: -3.991
Pks13 thioesterase: -13.9
LiHisRS: 22.41
TcHisRS: 8.861

compound: CCN(C)C[C@@H]1CN(S(=O)(=O)c2ccc(C#N)cc2)C[C@@H]1CO
MtTrpRS: -0.9726
Pks13 thioesterase: -1.467
LiHisRS: -4
TcHisRS: 5.202

compound: CC(C)n1cc(C(=O)N2Cc3ccccc3OC3(CCOCC3)C2)cn1
MtTrpRS: -3.93
Pks13 thioesterase: -36.03
LiHisRS: -8.333
TcHisRS: 0.5405

compound: CC(C)CC(C#N)NC(=O)COC1CCCCC1 (stereo not drawn)
MtTrpRS: -1.312
Pks13 thioesterase: -25.89
LiHisRS: 4.762
TcHisRS: 0

compound: C[C@H]1C[C@H]2CN(C(=O)C3=CCCCC3)CC[C@H]2O1
MtTrpRS: -4.446
LiHisRS: 3.883
TcHisRS: -0.9709

compound: Cc1nc(C)n(C2CCCN(C(=O)c3c(C)nn4cccnc34)C2)n1 (stereo not drawn)
MtTrpRS: 24.92
Pks13 thioesterase: -8.192
LiHisRS: 23.21
TcHisRS: 2.882

compound: Fc1ccc(CN[C@@H]2COC[C@H]2c2ccc(F)cc2)cc1
MtTrpRS: -8.828
Pks13 thioesterase: 6.337
LiHisRS: 11.35
TcHisRS: 6.202

compound: O=C(CN(C1=NCCCCC1)c1ccc(Cl)cc1)c1ccccc1
MtTrpRS: 1.022
Pks13 thioesterase: -8.202
LiHisRS: 5.263
TcHisRS: 10.98

compound: Cn1nnnc1SC1CCc2ccccc2NC1=O (stereo not drawn)
MtTrpRS: -1.085
Pks13 thioesterase: -7.899
LiHisRS: 15
TcHisRS: 9.938

compound: COc1ccc(C(=O)N2CC[C@@]3(O)CCCC[C@H]3C2)cc1OC
MtTrpRS: -5.812
Pks13 thioesterase: -14.62
LiHisRS: -7.895
TcHisRS: -1.754

compound: O=C(NC1CCCC1)c1nc2c(o1)CN(CCO)C2
MtTrpRS: -5.672
Pks13 thioesterase: -26.42
LiHisRS: 30
TcHisRS: 21.84

compound: Cc1nc(NC(=O)CCc2c(C)nc3cc(O)nn3c2C)sc1C
MtTrpRS: -3.116
Pks13 thioesterase: 14.5
LiHisRS: 22.61
TcHisRS: 8.621

compound: CC(C)CN1CCc2[nH]cnc2C12CCN(C(=O)c1cc[nH]n1)CC2
MtTrpRS: 2.484
Pks13 thioesterase: -17.6
LiHisRS: 24.19
TcHisRS: 12.64

compound: O=C(NCCCN1CCCCC1)c1n[nH]c(=O)c2ccccc12
MtTrpRS: 8.306
Pks13 thioesterase: -15.74
LiHisRS: 14.29
TcHisRS: 5.187

compound: Cc1cc(C)nc(NCc2nnc3n2CCCCC3)n1
MtTrpRS: 2.511
Pks13 thioesterase: -7.284
LiHisRS: 12.5
TcHisRS: 3.797

compound: CCc1ccccc1Nc1noc2c1CN(C(=O)CNC(C)=O)CC2
MtTrpRS: -0.7536
Pks13 thioesterase: -4.654
LiHisRS: 5.263
TcHisRS: 6.716

compound: Cc1ccc(CNCC2CCN(CCO)CC2)cc1
MtTrpRS: 0.7048
Pks13 thioesterase: -4.919
LiHisRS: 11.29
TcHisRS: 2.062

Some entries from above, unchanged:

compound	MtTrpRS	Pks13 thioesterase	LiHisRS	TcHisRS
CC(C)CN1CCc2[nH]cnc2C12CCN(C(=O)c1cc[nH]n1)CC2	2.484	-17.6	24.19	12.64
COc1ccc(C(C)NC(=O)NCCCn2cncn2)cc1F (stereo not drawn)	-4.814	-5.63	22.97	1.887